Data reported in article PMC5547389, “Structure-activity relationships and molecular docking studies of chromene and chromene based azo chromophores: A novel series of potent antimicrobial and anticancer agents” (EXCLI Journal, 2017).
In brackets after ≈: the same amount, converted by molar mass.

Tested on: Candida albicans (RCMB 05036)
Experiment: MIC by serial dilution method
Format: cell-based
Conditions: RCMB05036, fungi, read-out: Minimum inhibitory concentration, MIC, C.A
Protocol: All the newly synthesized compounds described in this report were screened for both antibacterial and antifungal activity via the reported agar diffusion well method (Vanden Berghe and Vlietinck, 1991[62]). The inhibition zones and minimum inhibitory concentrations (MIC) were determined by the serial dilution method (Cappuccino and Sherman, 1999[12]). The antimicrobial activity of the synthesized compounds was tested against a broad panel of microorganisms including two Gram-positive bacteria: Streptococcus pneumoniae (RCMB 010010) and Bacillus subtilis (RCMB 010067), two Gram-negative bacteria: Pseudomonas aeruginosa (RCMB 010043) and Escherichia coli (RCMB 010052), and four fungi: Aspergillus fumigatus (RCMB 02568), Syncephalastrum racemosum (RCMB 05922), Geotricum candidum (RCMB 05097), and Candida albicans (RCMB 05036). Ampicillin, ciprofloxacin, gentamicin and amphotericin B were used as positive control drugs (Atta-ur-Rahman and Thomsen, 2001[7]; Smania et al., 1999[57]). […] While in the case of Gm-ve bacteria, they had weak activity. In addition, certain strains of fungi were sensitive to tested compounds with an IZ range from 12-25 except Candida albicans.

Compound: C[C@@H]1[C@H](O)[C@@H](C)/C=C/C=C/C=C/C=C/C=C/C=C/C=C/[C@H](O[C@@H]2O[C@H](C)[C@@H](O)[C@H](N)[C@@H]2O)C[C@@H]2O[C@](O)(C[C@@H](O)C[C@@H](O)[C@H](O)CC[C@@H](O)C[C@@H](O)CC(=O)O[C@H]1C)C[C@H](O)[C@H]2C(=O)O [Amphotericin B, reference compound]
- MIC: 0.12 µg/mL (≈ 0.13 µM)
